Results reported in article doi:10.1101/2022.07.28.501803 (bioRxiv, 2022).
Results are given in words; binding and its absence hold for the method and conditions named. Some entries that bind do so weakly or less than the wild type. For some assays here: Tags and fused reporters may be left off the sequences shown.

Protein sequences, listed by entry. Tags and fused reporters are not part of them.
UniProt P32598: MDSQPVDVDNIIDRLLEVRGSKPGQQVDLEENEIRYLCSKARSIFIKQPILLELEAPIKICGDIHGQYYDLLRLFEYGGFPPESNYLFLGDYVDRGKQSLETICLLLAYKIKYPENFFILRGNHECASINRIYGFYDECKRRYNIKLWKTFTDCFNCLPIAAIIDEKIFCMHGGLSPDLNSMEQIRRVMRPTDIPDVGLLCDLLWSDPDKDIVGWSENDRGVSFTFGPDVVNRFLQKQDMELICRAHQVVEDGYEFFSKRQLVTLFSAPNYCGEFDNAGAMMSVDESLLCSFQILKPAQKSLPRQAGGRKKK
UniProt P53538: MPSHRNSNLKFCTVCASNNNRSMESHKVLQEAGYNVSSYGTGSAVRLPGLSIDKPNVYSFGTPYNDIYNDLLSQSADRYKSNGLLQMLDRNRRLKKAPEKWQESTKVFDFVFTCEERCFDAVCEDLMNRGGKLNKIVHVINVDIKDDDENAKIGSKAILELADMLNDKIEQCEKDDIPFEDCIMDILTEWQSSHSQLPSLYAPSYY

T1: Ref2-StrepII-tag (Ref2-SII) (yeast) (UniProt P42073)
T1 sequence: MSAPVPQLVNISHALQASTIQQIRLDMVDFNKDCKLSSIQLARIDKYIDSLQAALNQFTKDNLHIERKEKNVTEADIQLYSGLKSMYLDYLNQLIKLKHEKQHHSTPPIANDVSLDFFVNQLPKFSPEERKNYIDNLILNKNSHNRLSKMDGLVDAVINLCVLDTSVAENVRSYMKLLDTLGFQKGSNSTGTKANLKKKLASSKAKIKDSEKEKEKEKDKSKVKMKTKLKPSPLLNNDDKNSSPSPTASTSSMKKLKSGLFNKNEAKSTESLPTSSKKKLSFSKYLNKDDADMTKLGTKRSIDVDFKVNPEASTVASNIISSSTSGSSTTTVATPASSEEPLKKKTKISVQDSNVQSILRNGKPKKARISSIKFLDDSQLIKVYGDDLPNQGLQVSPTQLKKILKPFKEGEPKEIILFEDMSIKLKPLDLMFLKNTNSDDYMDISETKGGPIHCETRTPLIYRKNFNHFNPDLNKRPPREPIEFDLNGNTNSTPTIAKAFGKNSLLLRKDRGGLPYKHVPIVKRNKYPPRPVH

T2: Ref2-ΔIDR-SII (Ref2 with residues 230-338 deleted) (yeast) (UniProt P42073)
T2 sequence: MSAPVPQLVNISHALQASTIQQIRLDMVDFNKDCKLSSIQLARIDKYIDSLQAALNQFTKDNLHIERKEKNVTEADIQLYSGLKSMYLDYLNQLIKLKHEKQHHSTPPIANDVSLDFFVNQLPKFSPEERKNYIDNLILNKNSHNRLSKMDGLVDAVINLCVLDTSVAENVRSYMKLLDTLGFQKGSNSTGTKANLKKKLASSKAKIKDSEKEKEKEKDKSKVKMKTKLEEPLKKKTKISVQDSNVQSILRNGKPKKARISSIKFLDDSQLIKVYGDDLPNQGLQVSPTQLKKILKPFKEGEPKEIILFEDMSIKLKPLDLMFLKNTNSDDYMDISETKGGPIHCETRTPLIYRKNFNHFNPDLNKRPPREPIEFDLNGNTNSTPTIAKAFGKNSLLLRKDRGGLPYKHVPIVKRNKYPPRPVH

T3: Pta1-SII (yeast) (UniProt Q01329)
T3 sequence: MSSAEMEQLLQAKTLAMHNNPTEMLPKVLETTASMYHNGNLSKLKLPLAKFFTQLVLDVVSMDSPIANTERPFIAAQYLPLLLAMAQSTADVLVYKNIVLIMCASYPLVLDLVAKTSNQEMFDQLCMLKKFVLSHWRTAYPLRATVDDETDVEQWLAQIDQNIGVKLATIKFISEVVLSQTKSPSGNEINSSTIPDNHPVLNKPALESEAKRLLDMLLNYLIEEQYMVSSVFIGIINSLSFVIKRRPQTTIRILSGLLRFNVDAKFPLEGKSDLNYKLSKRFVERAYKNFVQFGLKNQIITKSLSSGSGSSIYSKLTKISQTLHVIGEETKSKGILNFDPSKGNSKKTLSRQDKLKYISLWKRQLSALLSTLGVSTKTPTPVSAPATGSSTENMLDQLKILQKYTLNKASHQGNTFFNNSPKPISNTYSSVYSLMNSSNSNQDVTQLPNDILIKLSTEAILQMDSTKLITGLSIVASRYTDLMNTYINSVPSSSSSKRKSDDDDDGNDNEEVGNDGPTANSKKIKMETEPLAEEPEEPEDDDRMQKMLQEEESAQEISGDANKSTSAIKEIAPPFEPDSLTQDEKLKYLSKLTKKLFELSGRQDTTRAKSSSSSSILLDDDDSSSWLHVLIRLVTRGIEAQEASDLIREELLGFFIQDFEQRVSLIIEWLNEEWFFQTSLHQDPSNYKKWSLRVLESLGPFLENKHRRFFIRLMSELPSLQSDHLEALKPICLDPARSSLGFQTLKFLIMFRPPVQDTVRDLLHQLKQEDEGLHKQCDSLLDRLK


Tests used:
Test in all cases: co-purification
[1] = target: T1, Ref2-StrepII-tag (Ref2-SII) (yeast)
[2] = target: T2, Ref2-ΔIDR-SII (Ref2 with residues 230-338 deleted) (yeast)
Pta1-SII (yeast) = target: T3, Pta1-SII (yeast)

Row | binding [1] | binding [2] | binding (Pta1-SII (yeast)) | Molecule
1 | binds | binds |  | Glc7 (co-expressed in insect cells) (from UniProt P32598 1-312) (enzyme)
2 | binds |  | binds | Ssu72 (from UniProt P53538 1-206) (enzyme)
3 | binds |  | binds | Syc1 (protein, UniProt Q08553 1-188) MDLPKDKSDRTHQRINLNNSGTDRTNDLYLHIVQTFGCIETTATENATKLLMLGDVEVEISASSVSIEWTQKSMISQTIADSIVIMIIGLCASDKNVLSESELKERNHNVWKIQELQNLFREQFGDSFSIDEGIGKKENVKNGSVTIGKSKATIDFSTMKLIDCNSNPLKGRVESILSIGQKLTTPLC
4 | binds |  |  | Pta1 (untagged, in APT) (protein, UniProt Q01329 1-785) MSSAEMEQLLQAKTLAMHNNPTEMLPKVLETTASMYHNGNLSKLKLPLAKFFTQLVLDVVSMDSPIANTERPFIAAQYLPLLLAMAQSTADVLVYKNIVLIMCASYPLVLDLVAKTSNQEMFDQLCMLKKFVLSHWRTAYPLRATVDDETDVEQWLAQIDQNIGVKLATIKFISEVVLSQTKSPSGNEINSSTIPDNHPVLNKPALESEAKRLLDMLLNYLIEEQYMVSSVFIGIINSLSFVIKRRPQTTIRILSGLLRFNVDAKFPLEGKSDLNYKLSKRFVERAYKNFVQFGLKNQIITKSLSSGSGSSIYSKLTKISQTLHVIGEETKSKGILNFDPSKGNSKKTLSRQDKLKYISLWKRQLSALLSTLGVSTKTPTPVSAPATGSSTENMLDQLKILQKYTLNKASHQGNTFFNNSPKPISNTYSSVYSLMNSSNSNQDVTQLPNDILIKLSTEAILQMDSTKLITGLSIVASRYTDLMNTYINSVPSSSSSKRKSDDDDDGNDNEEVGNDGPTANSKKIKMETEPLAEEPEEPEDDDRMQKMLQEEESAQEISGDANKSTSAIKEIAPPFEPDSLTQDEKLKYLSKLTKKLFELSGRQDTTRAKSSSSSSILLDDDDSSSWLHVLIRLVTRGIEAQEASDLIREELLGFFIQDFEQRVSLIIEWLNEEWFFQTSLHQDPSNYKKWSLRVLESLGPFLENKHRRFFIRLMSELPSLQSDHLEALKPICLDPARSSLGFQTLKFLIMFRPPVQDTVRDLLHQLKQEDEGLHKQCDSLLDRLK
5 | binds | binds |  | Swd2 (protein, UniProt P36104 1-329) MTTVSINKPNLLKFKHVKSFQPQEKDCGPVTSLNFDDNGQFLLTSSSNDTMQLYSATNCKFLDTIASKKYGCHSAIFTHAQNECIYSSTMKNFDIKYLNLETNQYLRYFSGHGALVNDLKMNPVNDTFLSSSYDESVRLWDLKISKPQVIIPSLVPNCIAYDPSGLVFALGNPENFEIGLYNLKKIQEGPFLIIKINDATFSQWNKLEFSNNGKYLLVGSSIGKHLIFDAFTGQQLFELIGTRAFPMREFLDSGSACFTPDGEFVLGTDYDGRIAIWNHSDSISNKVLRPQGFIPCVSHETCPRSIAFNPKYSMFVTADETVDFYVYDE
6 | binds |  | binds | Pti1 (protein, UniProt P39927 1-425) MTDPRRRTGRHFLTPENLSSTLQITNLPPEWNQDIITSVVAGSGPVIDIKAKNDPRTGKLTGVLFDYLTSKDCKRAWEILNRIENFPVKIEQIIPPNYKDHLRETANKNSQKQVLQLNRDSYPFEAGLELPFEMVTEVPIPRRPPPPQAANNTNSVSNNTNIQFPDILSKASKHLPSFQDGSIIAPDKISQNLSKIPPLQLIEIISNLKILSNQENIQKSQLESFLDTNSDITISVTQALLEMGFIDYSVVTKVLKSQVGEAPSLLSSNNTSNSNTPVSVIRNNTPLHVPSNEVSNNPNNMPLNVAMPMPMSTPPFIPLPLQQQPFGFAPPGPFMPPAQGPSMGQPVLANQLGQVQQQNISSTEGPSNANKANDSGTINMAKLQLLPENQQDMIKQVLTLTPAQIQSLPSDQQLMVENFRKEYII
